Data on 13 targets can be found in the supplement of paper PMC6411743.

Chains of the proteins cited; added tags and fusions are not shown. Lines headed by an entry give the natural chain unless they say otherwise; changes in a name come on top.
UniProt Q9Y250: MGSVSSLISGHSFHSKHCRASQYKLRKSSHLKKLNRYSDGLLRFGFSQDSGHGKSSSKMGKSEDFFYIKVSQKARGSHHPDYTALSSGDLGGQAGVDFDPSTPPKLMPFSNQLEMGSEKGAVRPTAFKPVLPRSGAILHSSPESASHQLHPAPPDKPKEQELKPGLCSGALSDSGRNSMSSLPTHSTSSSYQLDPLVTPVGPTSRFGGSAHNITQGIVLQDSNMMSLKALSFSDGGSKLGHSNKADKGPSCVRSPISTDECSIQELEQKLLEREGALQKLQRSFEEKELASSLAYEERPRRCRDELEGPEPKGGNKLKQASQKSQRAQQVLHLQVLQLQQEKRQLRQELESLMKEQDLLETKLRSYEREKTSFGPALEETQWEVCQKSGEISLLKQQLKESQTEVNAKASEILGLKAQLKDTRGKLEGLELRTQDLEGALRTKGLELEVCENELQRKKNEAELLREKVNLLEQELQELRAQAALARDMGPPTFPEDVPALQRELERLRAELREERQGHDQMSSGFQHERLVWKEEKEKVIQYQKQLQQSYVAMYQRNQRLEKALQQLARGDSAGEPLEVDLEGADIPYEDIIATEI
UniProt Q9UIB8: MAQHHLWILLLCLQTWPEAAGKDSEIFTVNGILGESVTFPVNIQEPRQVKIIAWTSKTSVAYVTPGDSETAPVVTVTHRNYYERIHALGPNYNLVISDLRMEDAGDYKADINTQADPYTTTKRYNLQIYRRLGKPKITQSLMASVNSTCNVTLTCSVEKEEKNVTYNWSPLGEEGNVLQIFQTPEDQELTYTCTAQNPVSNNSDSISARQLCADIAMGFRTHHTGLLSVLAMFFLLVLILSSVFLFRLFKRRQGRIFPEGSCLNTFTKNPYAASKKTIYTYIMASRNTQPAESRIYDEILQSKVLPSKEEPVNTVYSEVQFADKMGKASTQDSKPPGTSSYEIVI
UniProt Q9UIM3: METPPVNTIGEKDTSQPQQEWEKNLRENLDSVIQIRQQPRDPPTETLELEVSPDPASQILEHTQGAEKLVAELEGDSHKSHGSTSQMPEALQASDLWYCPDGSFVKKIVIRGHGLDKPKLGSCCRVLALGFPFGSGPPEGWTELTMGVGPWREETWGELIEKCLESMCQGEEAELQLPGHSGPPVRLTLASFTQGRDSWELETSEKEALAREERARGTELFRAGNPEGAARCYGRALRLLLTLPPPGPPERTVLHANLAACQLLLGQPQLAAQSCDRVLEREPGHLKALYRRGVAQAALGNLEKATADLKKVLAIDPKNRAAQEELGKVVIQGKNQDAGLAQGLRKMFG
UniProt Q9UBF2: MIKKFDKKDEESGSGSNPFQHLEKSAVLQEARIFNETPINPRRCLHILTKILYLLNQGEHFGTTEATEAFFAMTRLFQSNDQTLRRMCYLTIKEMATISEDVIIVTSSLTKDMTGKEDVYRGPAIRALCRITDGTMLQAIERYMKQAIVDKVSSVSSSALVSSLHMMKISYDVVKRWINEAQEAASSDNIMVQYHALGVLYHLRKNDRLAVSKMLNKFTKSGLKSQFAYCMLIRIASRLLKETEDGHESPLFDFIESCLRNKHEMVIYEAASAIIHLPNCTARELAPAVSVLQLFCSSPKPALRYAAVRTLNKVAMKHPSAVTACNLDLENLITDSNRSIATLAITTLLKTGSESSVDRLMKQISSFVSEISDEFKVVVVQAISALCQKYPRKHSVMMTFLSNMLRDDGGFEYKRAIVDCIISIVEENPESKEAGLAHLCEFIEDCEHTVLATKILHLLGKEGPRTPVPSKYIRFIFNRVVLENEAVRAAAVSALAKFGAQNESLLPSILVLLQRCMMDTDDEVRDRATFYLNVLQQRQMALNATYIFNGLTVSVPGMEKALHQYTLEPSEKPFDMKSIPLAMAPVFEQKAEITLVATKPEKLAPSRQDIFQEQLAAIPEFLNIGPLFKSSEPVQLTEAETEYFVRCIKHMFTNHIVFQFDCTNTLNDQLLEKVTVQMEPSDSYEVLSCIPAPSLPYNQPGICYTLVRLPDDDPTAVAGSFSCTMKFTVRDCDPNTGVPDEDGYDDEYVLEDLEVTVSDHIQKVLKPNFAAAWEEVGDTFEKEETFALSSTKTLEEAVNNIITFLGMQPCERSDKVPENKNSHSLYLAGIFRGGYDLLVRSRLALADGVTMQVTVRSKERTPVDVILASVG
UniProt Q9P287, whole entry: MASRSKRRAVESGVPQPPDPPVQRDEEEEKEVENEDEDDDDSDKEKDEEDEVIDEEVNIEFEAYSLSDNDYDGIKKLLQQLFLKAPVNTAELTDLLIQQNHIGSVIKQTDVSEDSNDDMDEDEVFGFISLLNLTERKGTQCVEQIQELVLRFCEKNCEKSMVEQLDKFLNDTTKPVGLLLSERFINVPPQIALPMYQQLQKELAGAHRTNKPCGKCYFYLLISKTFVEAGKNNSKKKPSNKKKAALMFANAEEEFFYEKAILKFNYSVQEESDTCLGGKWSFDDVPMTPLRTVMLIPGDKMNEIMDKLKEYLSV
UniProt Q9UBQ6: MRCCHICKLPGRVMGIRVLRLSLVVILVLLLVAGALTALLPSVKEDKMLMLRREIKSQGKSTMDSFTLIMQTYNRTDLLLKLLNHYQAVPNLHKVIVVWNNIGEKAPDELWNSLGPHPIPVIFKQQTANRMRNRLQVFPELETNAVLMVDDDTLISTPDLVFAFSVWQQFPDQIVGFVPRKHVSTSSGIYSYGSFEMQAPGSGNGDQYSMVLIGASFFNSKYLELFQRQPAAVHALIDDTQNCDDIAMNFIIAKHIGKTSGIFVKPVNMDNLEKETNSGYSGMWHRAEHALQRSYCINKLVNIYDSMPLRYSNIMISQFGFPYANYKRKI
UniProt Q9P2Y5: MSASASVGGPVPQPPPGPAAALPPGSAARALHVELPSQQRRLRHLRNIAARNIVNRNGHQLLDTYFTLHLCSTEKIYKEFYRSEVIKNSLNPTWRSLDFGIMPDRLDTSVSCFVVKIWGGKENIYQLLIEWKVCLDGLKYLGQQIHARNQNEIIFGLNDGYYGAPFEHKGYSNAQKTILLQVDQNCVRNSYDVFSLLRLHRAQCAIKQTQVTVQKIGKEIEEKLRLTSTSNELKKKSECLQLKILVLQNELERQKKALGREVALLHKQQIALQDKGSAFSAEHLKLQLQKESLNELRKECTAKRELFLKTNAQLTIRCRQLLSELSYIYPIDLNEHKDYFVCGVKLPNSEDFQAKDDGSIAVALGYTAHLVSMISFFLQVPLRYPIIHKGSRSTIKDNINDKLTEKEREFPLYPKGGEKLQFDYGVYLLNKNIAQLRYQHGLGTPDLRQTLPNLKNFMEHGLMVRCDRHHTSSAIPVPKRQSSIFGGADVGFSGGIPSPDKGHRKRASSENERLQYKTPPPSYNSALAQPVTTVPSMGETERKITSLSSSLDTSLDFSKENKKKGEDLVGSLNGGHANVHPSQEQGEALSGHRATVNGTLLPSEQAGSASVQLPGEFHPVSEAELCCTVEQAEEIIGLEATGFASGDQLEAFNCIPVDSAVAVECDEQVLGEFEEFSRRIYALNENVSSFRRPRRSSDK
UniProt Q9UG22: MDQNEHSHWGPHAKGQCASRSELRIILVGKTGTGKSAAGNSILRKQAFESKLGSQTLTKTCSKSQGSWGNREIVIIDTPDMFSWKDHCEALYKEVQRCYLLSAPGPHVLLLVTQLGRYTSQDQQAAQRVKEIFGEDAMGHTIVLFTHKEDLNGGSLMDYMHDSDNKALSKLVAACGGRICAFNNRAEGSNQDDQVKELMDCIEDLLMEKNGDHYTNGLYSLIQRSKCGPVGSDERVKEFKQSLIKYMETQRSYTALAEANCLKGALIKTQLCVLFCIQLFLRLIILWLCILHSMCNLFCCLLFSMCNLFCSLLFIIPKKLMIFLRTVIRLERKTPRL
UniProt Q9UBF6, whole entry: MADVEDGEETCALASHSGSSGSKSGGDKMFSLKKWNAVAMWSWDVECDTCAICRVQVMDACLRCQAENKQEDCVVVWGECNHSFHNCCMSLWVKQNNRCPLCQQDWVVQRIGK
UniProt Q9P2E3: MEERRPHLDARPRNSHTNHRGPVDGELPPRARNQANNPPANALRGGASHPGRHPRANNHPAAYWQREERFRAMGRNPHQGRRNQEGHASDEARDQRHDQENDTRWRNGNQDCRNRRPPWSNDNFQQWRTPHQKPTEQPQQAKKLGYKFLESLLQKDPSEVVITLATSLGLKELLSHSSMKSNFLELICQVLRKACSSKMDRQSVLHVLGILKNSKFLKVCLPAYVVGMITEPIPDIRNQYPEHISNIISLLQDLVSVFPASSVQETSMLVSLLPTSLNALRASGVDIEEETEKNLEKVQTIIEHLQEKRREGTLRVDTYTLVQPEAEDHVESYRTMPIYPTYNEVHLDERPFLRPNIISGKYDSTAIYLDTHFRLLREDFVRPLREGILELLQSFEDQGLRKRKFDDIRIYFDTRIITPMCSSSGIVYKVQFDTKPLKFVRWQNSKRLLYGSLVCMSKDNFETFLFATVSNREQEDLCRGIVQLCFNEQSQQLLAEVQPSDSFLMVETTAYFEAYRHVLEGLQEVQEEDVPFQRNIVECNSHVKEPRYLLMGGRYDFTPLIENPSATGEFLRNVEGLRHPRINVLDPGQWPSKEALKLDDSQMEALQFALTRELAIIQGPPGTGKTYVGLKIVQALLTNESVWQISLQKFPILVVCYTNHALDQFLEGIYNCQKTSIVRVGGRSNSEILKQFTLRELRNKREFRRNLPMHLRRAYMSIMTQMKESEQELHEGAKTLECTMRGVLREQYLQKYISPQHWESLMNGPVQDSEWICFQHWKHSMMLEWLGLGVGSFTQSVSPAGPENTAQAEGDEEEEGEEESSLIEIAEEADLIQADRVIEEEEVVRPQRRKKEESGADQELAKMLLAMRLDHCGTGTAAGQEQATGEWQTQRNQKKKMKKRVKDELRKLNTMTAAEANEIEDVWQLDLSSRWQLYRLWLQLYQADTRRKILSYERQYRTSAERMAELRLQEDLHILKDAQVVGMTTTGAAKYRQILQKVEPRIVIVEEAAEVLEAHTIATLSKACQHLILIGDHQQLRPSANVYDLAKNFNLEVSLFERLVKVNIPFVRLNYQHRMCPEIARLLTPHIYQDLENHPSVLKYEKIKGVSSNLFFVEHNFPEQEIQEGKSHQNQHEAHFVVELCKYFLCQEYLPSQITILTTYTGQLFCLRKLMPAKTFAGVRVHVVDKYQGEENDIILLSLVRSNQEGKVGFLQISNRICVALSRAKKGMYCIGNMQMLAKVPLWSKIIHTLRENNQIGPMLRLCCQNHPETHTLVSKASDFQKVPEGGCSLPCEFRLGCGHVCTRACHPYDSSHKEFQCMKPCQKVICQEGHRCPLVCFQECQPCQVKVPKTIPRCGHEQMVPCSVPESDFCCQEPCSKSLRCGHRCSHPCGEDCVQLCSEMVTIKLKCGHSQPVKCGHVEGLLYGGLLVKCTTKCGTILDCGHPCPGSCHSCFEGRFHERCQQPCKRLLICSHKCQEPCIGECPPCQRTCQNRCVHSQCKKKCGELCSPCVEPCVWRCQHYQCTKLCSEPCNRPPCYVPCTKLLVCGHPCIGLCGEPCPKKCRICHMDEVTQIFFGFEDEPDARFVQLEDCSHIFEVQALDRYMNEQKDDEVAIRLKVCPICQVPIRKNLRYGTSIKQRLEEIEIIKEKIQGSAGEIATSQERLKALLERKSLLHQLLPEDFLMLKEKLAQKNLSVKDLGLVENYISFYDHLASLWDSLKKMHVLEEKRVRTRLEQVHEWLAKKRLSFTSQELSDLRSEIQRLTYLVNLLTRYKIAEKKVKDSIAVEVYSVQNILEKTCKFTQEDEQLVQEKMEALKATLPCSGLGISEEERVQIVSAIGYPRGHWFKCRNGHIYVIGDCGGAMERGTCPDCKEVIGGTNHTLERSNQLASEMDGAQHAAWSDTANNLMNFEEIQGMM
UniProt Q9UJA5: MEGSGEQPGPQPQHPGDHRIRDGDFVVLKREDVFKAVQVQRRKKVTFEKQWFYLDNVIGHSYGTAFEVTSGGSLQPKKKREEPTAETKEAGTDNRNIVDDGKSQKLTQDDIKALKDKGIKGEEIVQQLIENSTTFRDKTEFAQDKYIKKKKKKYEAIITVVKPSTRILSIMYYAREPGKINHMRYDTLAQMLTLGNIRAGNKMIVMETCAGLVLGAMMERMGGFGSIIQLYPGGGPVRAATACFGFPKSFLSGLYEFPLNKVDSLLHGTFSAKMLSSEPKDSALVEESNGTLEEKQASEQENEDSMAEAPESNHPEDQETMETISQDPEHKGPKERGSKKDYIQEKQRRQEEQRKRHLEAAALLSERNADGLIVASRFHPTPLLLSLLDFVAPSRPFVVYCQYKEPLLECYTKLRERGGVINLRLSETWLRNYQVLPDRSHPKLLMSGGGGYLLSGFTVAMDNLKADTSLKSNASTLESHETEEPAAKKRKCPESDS

± gives the standard deviation of the averaged measurements. Only a part is listed here, and it is no random draw.

Compound in the experiment: Nc1ncnc2c1ncn2[C@@H]1O[C@H](COP(=O)(O)OP(=O)(O)OP(=O)(O)O)[C@@H](O)[C@H]1O [adenosine triphosphate]
The experiment is described as follows: NP40-soluble protein abundance relative to vehicle (solubility fold change) (ratio); higher = more soluble protein in presence of ATP. An outline of the steps:
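Data come from three independent experiments in which Dounce-homogenised Jurkat crude lysate was treated at eight concentrations from 0.1 to 10 mM. Treatment ran 10 min at room temperature and then 3 min at 37 °C, after which 0.8% NP40 and benzonase were added for 60 min at 4 °C before ultracentrifugation. The supernatant underwent TMT labelling and LC-MS/MS, and vsn-normalised intensities were expressed as fold change against the detergent-processed vehicle in each replicate.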

Turning to UniProt Q9Y250 and related entries, the NP40-soluble protein abundance reads like this: (concentration: 1mM) 1.03 ± 0.031; (concentration: 2mM) 1.04 ± 0.13; (concentration: 4mM) 1.03 ± 0.082; (concentration: 6mM) 1.04 ± 0.095; (concentration: 8mM) 1.08 ± 0.095; (concentration: 10mM) 1.06 ± 0.083.

In the case of “UniProt Q9UBB6-2|Q9UBB6 and related entries”, the NP40-soluble protein abundance (concentration: 1mM) was 0.877 ± 0.024; the NP40-soluble protein abundance (concentration: 2mM) amounted to 0.909 ± 0.049; the NP40-soluble protein abundance (concentration: 4mM) amounted to 0.893 ± 0.023; the NP40-soluble protein abundance (concentration: 6mM) came to 0.871 ± 0.029; the NP40-soluble protein abundance (concentration: 8mM) was found to be 0.906 ± 0.06; the NP40-soluble protein abundance (concentration: 10mM) is 0.931 ± 0.028.

Regarding UniProt Q9UIB8 and related entries, the NP40-soluble protein abundance by setting is: (concentration: 1mM) 0.945 ± 0.035; (concentration: 2mM) 0.949 ± 0.034; (concentration: 4mM) 0.905 ± 0.04; (concentration: 6mM) 0.932 ± 0.046; (concentration: 8mM) 0.904 ± 0.038; (concentration: 10mM) 0.89 ± 0.065.

Take FKBPL (UniProt Q9UIM3): the NP40-soluble protein abundance is 0.973 ± 0.061 (concentration: 1mM); 0.987 ± 0.052 (concentration: 2mM); 0.985 ± 0.051 (concentration: 4mM); 0.97 ± 0.08 (concentration: 6mM); 0.932 ± 0.026 (concentration: 8mM); 0.894 ± 0.1 (concentration: 10mM).

Regarding COPG2 (UniProt Q9UBF2), the NP40-soluble protein abundance was 1.02 ± 0.083 (concentration: 1mM); 1 ± 0.054 (concentration: 2mM); 0.984 ± 0.031 (concentration: 4mM); 0.939 ± 0.041 (concentration: 6mM); 0.984 ± 0.011 (concentration: 8mM); 0.991 ± 0.031 (concentration: 10mM).

As for UniProt Q9P287 and related entries, the NP40-soluble protein abundance came out at 0.952 ± 0.028 (concentration: 1mM); 0.989 ± 0.032 (concentration: 2mM); 0.948 ± 0.015 (concentration: 4mM); 0.937 ± 0.052 (concentration: 6mM); 0.939 ± 0.017 (concentration: 8mM); 0.979 ± 0.042 (concentration: 10mM).

For the target EXTL2 (UniProt Q9UBQ6), the NP40-soluble protein abundance is, setting by setting: (concentration: 1mM) 1.01 ± 0.015; (concentration: 2mM) 0.962 ± 0.031; (concentration: 4mM) 0.991 ± 0.073; (concentration: 6mM) 1.01 ± 0.056; (concentration: 8mM) 1 ± 0.013; (concentration: 10mM) 1.01 ± 0.016.

As to UniProt Q9UPW0 and related entries, the NP40-soluble protein abundance is, setting by setting: (concentration: 1mM) 0.912 ± 0.076; (concentration: 2mM) 0.943 ± 0.081; (concentration: 4mM) 0.897 ± 0.069; (concentration: 6mM) 0.923 ± 0.05; (concentration: 8mM) 0.872 ± 0.076; (concentration: 10mM) 0.864 ± 0.063.

As to UVRAG (UniProt Q9P2Y5), the NP40-soluble protein abundance was 1.05 ± 0.044 (concentration: 1mM); 1 ± 0.028 (concentration: 2mM); 0.968 ± 0.029 (concentration: 4mM); 0.977 ± 0.042 (concentration: 6mM); 1.03 ± 0.012 (concentration: 8mM); 1.008 ± 0.0075 (concentration: 10mM).

For the target UniProt Q9UG22, the NP40-soluble protein abundance runs as follows: (concentration: 1mM) 0.97 ± 0.02; (concentration: 2mM) 1.02 ± 0.014; (concentration: 4mM) 0.976 ± 0.066; (concentration: 6mM) 0.963 ± 0.066; (concentration: 8mM) 1.01 ± 0.017; (concentration: 10mM) 1 ± 0.036.

Regarding RNF7 (UniProt Q9UBF6), the NP40-soluble protein abundance was found to be 1.24 ± 0.3 (concentration: 1mM); 1.03 ± 0.079 (concentration: 2mM); 1 ± 0.08 (concentration: 4mM); 1.06 ± 0.14 (concentration: 6mM); 0.939 ± 0.089 (concentration: 8mM); 0.942 ± 0.041 (concentration: 10mM).

In the case of ZNFX1 (UniProt Q9P2E3), the NP40-soluble protein abundance reads like this: (concentration: 1mM) 1.072 ± 0.0053; (concentration: 2mM) 1.05 ± 0.015; (concentration: 4mM) 1.06 ± 0.014; (concentration: 6mM) 1.03 ± 0.014; (concentration: 8mM) 1.08 ± 0.043; (concentration: 10mM) 1.01 ± 0.048.

For TRMT6 (UniProt Q9UJA5), the NP40-soluble protein abundance runs as follows: (concentration: 1mM) 0.942 ± 0.017; (concentration: 2mM) 0.9616 ± 0.0055; (concentration: 4mM) 0.9594 ± 0.0079; (concentration: 6mM) 0.987 ± 0.017; (concentration: 8mM) 0.959 ± 0.013; (concentration: 10mM) 0.968 ± 0.01.
